Data: the supplement of paper PMC11006884
What follows is the remainder of the data, with few or none of the targets with a hit. The data scatter; read single values as rough. The list shows a part of the results, in another mix than the full data.

By UniProt entry, the sequences of proteins in these tests, tags left out. Where a name states a change or a piece, a line headed by the entry shows the natural chain unless it says otherwise.
UniProt P35269, whole entry: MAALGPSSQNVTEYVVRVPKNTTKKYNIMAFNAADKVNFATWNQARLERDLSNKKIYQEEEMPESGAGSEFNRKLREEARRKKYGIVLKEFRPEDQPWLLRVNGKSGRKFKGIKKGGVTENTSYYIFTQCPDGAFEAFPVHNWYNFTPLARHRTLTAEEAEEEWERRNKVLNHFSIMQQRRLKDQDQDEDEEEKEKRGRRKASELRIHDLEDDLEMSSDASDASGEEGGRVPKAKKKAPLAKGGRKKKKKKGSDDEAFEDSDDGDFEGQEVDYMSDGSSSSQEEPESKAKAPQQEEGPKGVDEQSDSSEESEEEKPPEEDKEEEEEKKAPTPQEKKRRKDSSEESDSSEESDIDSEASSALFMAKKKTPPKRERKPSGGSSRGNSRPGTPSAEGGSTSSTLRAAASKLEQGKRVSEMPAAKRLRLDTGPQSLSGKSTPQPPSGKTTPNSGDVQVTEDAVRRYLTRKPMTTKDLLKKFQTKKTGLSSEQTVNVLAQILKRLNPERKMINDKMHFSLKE
UniProt P42166: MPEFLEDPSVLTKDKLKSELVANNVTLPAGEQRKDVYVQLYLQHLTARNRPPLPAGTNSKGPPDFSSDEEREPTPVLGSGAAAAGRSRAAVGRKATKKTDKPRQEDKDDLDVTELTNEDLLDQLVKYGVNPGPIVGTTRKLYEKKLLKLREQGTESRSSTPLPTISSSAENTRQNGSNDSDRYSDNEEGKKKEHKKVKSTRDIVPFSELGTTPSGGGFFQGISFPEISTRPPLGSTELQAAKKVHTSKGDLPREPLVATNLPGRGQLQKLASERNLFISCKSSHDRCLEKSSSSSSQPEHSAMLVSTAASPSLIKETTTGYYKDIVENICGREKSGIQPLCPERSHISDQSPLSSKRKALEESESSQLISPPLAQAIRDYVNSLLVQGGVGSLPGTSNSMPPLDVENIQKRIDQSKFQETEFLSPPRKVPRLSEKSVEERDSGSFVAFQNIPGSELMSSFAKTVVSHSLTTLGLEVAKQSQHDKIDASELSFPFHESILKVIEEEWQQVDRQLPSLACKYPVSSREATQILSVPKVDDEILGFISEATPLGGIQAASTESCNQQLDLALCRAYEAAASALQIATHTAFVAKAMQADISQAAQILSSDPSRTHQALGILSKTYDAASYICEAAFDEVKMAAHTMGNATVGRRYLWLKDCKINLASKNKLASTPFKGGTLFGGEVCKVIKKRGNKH
UniProt P31948, whole entry, looked up: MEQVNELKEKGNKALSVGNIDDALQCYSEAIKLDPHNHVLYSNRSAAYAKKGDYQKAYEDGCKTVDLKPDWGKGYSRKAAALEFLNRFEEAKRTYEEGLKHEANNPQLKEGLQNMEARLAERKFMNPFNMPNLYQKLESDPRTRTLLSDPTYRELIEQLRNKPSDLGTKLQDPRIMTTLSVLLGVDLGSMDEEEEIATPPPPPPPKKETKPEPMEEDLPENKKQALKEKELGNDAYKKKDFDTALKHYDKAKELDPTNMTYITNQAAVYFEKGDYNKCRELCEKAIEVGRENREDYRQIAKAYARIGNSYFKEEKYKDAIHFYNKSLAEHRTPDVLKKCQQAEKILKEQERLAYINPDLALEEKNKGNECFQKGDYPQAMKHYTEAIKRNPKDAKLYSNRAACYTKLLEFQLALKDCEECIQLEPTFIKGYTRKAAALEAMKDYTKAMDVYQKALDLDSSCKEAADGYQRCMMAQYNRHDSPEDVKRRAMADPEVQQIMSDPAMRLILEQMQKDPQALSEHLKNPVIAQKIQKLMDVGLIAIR
UniProt P35580, whole entry, looked up: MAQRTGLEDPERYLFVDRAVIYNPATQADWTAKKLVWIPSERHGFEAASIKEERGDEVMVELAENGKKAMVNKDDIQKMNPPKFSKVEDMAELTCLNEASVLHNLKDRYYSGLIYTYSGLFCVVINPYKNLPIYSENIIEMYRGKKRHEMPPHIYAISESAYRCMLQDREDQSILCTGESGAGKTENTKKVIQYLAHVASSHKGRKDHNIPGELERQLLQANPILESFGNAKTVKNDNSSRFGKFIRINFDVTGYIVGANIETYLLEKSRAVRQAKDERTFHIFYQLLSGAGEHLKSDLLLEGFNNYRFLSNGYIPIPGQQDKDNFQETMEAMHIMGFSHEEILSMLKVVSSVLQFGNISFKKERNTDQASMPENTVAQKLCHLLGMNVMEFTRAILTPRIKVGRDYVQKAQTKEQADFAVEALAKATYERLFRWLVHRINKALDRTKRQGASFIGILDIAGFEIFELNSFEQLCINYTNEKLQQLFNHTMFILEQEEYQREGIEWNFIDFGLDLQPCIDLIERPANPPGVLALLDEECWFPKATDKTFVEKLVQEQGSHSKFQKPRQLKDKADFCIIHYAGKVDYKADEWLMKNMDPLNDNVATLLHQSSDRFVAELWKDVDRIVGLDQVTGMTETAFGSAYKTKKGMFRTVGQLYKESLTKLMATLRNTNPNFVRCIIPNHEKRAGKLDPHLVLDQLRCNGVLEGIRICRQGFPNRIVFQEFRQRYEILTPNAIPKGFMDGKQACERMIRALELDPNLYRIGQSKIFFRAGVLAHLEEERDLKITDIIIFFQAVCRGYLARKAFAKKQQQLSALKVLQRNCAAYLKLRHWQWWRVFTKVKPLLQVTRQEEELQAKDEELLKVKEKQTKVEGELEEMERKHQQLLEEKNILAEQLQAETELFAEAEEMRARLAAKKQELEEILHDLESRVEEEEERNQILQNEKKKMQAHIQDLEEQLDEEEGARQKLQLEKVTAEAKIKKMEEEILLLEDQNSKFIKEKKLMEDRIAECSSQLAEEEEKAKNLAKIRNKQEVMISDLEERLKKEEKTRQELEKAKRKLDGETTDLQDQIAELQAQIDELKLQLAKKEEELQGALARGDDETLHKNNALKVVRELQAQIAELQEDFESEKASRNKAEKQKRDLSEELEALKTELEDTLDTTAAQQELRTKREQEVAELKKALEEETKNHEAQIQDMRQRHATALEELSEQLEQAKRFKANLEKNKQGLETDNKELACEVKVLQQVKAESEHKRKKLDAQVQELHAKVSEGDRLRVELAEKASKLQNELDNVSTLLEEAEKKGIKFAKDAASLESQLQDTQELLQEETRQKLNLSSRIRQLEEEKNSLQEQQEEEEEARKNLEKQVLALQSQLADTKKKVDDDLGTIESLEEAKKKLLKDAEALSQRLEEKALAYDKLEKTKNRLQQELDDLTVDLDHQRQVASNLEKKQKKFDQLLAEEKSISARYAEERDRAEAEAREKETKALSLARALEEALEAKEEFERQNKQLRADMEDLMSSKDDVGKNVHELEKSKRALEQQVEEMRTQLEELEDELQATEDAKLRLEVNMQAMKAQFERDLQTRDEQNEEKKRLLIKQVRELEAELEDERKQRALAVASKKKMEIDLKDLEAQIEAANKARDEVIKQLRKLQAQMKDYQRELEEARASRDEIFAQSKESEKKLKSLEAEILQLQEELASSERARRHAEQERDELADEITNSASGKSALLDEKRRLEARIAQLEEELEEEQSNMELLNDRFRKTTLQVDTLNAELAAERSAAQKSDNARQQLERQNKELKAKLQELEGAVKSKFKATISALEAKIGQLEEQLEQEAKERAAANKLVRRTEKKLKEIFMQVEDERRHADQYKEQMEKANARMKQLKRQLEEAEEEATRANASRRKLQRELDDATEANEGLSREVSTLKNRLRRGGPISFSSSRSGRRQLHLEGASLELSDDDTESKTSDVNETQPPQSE
UniProt P35219: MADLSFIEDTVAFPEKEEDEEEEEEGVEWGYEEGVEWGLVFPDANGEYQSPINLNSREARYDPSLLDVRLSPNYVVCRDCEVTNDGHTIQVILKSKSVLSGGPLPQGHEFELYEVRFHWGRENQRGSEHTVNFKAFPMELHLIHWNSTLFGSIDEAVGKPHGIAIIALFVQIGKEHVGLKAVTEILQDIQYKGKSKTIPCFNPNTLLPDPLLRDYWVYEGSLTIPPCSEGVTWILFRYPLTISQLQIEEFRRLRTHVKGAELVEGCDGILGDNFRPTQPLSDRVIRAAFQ
UniProt P41567, whole entry, looked up: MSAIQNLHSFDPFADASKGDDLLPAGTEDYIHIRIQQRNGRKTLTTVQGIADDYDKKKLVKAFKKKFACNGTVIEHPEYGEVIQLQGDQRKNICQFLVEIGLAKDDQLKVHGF
UniProt P33240: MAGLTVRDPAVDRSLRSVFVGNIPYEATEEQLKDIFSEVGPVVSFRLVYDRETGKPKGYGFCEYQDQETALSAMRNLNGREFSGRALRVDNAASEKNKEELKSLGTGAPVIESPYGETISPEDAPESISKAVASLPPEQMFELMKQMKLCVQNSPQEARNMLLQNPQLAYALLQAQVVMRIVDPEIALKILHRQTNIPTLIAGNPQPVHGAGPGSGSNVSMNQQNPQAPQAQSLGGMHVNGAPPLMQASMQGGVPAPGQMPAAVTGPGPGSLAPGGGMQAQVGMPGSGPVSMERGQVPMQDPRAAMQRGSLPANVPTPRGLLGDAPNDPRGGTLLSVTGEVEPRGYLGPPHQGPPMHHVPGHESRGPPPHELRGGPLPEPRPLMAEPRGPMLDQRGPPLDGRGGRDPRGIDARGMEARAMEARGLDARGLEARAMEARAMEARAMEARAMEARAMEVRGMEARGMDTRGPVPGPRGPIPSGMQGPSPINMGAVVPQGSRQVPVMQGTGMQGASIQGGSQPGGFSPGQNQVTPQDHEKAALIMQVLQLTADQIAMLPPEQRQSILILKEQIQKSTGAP
UniProt P36405: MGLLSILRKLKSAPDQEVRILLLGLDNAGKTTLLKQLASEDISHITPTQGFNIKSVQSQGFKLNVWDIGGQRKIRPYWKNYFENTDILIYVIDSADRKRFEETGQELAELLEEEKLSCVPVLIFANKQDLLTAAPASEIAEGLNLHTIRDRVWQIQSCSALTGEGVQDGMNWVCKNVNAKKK
UniProt P41214: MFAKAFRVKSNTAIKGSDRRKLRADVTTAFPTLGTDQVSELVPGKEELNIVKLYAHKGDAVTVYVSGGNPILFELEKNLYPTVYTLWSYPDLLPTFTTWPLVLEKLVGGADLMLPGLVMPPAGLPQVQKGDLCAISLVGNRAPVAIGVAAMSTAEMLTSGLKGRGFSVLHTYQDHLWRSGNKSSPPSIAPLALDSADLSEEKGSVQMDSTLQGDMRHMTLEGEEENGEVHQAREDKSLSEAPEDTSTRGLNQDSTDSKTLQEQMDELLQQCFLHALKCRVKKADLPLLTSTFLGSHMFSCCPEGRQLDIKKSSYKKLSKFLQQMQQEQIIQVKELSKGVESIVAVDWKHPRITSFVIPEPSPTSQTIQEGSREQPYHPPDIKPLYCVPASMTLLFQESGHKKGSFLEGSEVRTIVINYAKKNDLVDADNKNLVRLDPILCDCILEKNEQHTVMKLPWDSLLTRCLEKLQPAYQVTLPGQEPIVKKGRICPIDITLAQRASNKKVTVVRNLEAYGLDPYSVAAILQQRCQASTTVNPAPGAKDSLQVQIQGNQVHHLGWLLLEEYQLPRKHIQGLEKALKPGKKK
UniProt P31946: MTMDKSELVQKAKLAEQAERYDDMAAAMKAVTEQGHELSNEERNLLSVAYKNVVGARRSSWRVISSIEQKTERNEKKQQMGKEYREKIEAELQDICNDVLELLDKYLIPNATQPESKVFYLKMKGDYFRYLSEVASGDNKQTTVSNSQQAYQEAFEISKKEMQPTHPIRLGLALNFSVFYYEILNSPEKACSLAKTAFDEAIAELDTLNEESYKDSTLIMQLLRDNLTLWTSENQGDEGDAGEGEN
UniProt P31260, whole entry: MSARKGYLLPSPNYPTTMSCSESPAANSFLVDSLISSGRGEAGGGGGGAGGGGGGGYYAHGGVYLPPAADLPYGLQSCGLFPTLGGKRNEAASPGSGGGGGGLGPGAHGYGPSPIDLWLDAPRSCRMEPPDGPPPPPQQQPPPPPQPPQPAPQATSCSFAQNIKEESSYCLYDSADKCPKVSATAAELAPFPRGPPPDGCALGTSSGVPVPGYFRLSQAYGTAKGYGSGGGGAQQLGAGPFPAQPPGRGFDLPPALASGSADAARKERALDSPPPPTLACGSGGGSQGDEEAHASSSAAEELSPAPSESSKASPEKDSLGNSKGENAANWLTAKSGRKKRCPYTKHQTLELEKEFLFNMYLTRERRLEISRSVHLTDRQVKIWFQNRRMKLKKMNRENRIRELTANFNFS
UniProt P36873, whole entry, looked up: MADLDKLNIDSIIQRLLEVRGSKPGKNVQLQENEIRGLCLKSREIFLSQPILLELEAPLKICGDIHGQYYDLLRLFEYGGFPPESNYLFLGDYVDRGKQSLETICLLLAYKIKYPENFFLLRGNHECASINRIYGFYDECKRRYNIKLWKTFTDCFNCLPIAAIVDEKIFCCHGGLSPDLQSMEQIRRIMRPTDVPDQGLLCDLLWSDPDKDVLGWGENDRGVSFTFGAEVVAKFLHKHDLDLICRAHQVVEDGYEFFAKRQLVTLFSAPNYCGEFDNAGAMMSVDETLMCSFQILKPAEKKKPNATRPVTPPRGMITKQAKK

compound: COC(=O)/C=C/c1ccccc1 [methyl cinnamate]; assay: log2 ratio of iodoacetamide-alkyne labeling of the cysteine site, DMSO over compound (competition); higher = stronger covalent engagement of the cysteine by the compound, active = 1 or more; settings: 500 µM; treatment time 1 h; system: HEK293T cell lysate
Outline: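 After 1 h at ambient temperature with vehicle or electrophile (500 µM), HEK293T lysate (2 mg/mL) was labelled for 1 h with iodoacetamide alkyne and clicked to sCIP-TMT reagents. Pooled samples were trypsin-digested overnight at 37 °C, streptavidin-enriched, acid-eluted and analysed by Orbitrap Eclipse LC-MS/MS with FAIMS, then quantified in FragPipe over three replicates with duplicate channels. A cysteine's log2 competition ratio is its mean control-channel over mean compound-channel reporter intensity. Cysteines quantified in only one replicate were not included.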

log2 ratio of iodoacetamide-alkyne labeling, inactive:
NCAPD3 C1293 (UniProt P42695) 0.339
GTF2F1 C130 (UniProt P35269) 0.529
TMPO C341 (UniProt P42166) 0.33
STIP1 C471 (UniProt P31948) 0.122
MYH10 C1238 (UniProt P35580) 0.307
CA8 C200 (UniProt P35219) -0.101
EIF1 C69 (UniProt P41567) 0.231
CSTF2 C150 (UniProt P33240) 0.518
ARL3 C118 (UniProt P36405) 0.243
UniProt P41214_C489 0.201
POLR2B C837 (UniProt P30876) 0.247
STIP1 C26 (UniProt P31948) 0.174
YWHAB C96 (UniProt P31946) 0.412
UniProt P31260_C200 0.338
KIF5B C7 (UniProt P33176) 0.138
PPP1CC C127 (UniProt P36873) 0.0221

Pulled one by one from the list above, two records:
log2 ratio of iodoacetamide-alkyne labeling, inactive:
PPP1CC C127 (UniProt P36873) 0.0221
MYH10 C1238 (UniProt P35580) 0.307
